Measured values taken from the supplement of paper PMC12823440, “Inhibitors supercharge kinase turnover through native proteolytic circuits” (Nature, 2025).
The list shows a part of the results. The calls rarely recur for the same compound in another form.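 In K562 cells expressing nanoluciferase-fused kinases, luminescence was recorded at 4 h intervals between 2 and 18 h, normalized as percent of control with DMSO at 100% and a positive control at 0%. A significant (2 sigma) signal drop marks a time point as decreased. The authors' rule for a hit is not shown and takes in more than the number of time points.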

The chains behind the UniProt entries cited, without tags or fusion partners. Where a name states a change or a piece, a line headed by the entry shows the natural chain unless it says otherwise.
UniProt Q9Y616: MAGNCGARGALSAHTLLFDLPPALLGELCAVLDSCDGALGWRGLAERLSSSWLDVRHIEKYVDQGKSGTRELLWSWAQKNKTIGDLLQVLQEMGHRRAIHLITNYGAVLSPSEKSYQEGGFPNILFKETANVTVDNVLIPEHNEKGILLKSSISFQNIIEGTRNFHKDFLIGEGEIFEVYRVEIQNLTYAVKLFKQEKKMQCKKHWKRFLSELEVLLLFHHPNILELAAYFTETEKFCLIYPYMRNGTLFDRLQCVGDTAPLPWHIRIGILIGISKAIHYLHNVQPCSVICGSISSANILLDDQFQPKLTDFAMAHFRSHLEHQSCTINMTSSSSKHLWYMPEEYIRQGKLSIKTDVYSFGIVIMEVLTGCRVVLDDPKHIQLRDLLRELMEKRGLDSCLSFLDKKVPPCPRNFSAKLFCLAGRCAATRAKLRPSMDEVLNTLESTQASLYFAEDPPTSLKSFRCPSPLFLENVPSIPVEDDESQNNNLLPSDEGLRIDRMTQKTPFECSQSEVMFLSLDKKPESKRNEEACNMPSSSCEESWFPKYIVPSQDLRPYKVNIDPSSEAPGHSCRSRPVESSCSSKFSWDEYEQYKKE
UniProt P53667: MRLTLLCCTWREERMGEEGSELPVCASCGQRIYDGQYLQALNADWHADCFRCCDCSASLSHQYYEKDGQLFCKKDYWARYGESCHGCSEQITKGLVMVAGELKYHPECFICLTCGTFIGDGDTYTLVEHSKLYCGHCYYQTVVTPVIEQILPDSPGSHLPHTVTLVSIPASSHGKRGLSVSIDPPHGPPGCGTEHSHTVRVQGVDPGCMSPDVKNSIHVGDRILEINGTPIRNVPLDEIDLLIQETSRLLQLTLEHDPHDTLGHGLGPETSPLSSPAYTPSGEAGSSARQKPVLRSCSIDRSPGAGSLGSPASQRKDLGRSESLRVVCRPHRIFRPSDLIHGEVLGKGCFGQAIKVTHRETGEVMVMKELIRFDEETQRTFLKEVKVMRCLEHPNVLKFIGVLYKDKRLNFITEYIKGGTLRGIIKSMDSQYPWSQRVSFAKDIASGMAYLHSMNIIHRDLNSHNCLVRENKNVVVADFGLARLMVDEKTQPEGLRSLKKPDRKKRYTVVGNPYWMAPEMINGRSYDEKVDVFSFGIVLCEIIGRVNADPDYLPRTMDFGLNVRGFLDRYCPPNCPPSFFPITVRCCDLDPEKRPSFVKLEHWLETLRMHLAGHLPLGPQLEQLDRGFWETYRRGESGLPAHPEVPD
UniProt P53671: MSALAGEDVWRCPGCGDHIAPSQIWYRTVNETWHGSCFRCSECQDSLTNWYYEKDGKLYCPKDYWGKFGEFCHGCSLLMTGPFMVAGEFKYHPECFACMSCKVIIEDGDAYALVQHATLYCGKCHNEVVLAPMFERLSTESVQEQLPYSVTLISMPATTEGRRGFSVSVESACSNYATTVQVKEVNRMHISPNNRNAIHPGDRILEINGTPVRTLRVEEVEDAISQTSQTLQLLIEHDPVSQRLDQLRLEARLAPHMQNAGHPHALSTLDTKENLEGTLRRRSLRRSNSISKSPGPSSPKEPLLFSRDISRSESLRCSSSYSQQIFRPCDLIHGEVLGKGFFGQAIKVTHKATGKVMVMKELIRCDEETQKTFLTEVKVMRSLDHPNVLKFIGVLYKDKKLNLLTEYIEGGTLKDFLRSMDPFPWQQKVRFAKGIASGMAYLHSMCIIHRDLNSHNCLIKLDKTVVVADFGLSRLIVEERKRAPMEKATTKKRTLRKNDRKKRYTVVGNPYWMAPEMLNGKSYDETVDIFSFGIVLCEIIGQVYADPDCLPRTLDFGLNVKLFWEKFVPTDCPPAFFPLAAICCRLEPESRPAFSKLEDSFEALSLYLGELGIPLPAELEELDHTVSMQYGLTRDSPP
UniProt Q8IWU2: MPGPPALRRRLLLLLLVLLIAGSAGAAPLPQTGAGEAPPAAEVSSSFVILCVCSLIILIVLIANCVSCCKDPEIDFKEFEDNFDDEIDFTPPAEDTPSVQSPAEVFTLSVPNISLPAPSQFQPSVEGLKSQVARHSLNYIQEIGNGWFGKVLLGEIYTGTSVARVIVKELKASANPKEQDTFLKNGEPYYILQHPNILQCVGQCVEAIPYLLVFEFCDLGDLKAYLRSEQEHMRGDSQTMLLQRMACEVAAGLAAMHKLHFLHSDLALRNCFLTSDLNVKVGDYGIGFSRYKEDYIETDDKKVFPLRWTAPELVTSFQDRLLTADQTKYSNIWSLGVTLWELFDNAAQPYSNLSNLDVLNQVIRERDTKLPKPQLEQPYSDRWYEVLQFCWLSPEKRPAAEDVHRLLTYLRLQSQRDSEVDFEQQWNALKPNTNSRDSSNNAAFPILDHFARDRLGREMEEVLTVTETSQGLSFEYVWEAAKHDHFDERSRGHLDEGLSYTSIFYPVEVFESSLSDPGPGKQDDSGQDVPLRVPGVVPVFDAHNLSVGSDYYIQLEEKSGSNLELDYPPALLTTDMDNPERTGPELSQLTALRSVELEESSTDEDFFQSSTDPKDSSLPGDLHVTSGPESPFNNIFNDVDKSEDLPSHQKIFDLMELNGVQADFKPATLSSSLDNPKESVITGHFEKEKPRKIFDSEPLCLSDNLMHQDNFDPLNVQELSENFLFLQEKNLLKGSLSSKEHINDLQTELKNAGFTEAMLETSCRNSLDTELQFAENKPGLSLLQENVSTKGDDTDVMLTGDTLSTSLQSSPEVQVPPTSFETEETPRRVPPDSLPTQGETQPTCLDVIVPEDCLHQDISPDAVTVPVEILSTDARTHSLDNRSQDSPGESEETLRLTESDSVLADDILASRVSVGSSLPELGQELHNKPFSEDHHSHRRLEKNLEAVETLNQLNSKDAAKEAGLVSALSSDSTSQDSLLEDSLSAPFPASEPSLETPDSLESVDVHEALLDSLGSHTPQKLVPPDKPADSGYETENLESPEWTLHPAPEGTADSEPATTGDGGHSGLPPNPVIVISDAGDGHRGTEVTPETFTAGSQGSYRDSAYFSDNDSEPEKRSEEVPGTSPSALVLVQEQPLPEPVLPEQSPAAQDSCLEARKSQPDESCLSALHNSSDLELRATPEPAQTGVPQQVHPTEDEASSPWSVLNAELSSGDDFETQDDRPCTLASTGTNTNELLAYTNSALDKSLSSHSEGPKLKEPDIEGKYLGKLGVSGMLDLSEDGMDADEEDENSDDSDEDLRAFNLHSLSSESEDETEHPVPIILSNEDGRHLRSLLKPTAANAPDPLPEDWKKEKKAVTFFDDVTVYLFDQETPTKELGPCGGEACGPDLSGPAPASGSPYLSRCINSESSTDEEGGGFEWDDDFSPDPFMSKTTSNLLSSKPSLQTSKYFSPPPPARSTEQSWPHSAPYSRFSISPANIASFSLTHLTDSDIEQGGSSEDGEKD
UniProt P07948: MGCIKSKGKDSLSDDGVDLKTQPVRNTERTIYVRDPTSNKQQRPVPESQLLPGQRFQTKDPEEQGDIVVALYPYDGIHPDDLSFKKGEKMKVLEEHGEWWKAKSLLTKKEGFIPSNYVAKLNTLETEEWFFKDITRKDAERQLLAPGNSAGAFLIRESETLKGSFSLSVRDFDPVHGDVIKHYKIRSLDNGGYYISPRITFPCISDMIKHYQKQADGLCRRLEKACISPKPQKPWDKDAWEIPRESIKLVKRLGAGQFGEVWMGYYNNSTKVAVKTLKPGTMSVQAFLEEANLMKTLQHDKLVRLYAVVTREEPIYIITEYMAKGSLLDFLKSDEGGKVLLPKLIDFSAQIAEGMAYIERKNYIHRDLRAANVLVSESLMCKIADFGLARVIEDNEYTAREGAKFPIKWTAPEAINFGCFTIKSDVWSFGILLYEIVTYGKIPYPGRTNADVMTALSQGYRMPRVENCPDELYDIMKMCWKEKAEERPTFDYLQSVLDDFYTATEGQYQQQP
UniProt Q12851: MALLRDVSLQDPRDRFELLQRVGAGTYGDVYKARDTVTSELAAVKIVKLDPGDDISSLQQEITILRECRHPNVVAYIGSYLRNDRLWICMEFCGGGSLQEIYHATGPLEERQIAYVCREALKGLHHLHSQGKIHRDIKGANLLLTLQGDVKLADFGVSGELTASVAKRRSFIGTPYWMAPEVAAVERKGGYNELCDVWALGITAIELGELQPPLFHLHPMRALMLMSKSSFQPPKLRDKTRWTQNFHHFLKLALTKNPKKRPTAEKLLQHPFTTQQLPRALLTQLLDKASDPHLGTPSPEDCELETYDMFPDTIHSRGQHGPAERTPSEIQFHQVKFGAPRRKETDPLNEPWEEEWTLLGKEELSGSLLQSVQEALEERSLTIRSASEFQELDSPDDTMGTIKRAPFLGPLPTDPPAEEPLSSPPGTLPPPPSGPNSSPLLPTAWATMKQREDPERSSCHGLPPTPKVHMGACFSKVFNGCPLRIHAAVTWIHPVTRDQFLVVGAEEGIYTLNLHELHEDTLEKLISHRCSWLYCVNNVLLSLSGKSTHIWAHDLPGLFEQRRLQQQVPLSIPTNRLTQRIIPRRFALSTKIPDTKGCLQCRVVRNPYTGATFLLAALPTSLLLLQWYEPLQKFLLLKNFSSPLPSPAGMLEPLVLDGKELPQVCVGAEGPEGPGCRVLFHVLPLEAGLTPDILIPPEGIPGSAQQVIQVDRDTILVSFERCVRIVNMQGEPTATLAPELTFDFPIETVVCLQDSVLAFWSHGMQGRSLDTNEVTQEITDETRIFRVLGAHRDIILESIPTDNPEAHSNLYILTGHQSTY
UniProt P49137, whole entry, looked up: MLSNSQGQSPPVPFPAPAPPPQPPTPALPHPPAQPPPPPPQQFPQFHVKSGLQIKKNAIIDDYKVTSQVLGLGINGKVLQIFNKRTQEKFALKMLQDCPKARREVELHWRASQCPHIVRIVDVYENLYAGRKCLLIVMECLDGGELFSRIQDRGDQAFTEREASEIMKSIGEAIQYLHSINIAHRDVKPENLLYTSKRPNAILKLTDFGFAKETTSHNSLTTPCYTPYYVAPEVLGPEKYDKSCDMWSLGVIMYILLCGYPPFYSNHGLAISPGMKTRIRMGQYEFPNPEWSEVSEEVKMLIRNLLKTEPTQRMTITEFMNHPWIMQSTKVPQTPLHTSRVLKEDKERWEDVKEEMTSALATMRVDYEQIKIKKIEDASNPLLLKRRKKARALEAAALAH
UniProt Q96KB5: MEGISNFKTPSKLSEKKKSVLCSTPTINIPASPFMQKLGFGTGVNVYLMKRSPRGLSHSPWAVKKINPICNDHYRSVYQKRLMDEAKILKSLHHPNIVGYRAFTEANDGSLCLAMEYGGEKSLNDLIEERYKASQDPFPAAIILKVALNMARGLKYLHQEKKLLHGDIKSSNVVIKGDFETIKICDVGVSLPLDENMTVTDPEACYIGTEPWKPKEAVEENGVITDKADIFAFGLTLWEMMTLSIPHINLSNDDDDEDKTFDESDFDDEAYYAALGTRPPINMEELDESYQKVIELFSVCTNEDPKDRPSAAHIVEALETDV
UniProt P09619, whole entry: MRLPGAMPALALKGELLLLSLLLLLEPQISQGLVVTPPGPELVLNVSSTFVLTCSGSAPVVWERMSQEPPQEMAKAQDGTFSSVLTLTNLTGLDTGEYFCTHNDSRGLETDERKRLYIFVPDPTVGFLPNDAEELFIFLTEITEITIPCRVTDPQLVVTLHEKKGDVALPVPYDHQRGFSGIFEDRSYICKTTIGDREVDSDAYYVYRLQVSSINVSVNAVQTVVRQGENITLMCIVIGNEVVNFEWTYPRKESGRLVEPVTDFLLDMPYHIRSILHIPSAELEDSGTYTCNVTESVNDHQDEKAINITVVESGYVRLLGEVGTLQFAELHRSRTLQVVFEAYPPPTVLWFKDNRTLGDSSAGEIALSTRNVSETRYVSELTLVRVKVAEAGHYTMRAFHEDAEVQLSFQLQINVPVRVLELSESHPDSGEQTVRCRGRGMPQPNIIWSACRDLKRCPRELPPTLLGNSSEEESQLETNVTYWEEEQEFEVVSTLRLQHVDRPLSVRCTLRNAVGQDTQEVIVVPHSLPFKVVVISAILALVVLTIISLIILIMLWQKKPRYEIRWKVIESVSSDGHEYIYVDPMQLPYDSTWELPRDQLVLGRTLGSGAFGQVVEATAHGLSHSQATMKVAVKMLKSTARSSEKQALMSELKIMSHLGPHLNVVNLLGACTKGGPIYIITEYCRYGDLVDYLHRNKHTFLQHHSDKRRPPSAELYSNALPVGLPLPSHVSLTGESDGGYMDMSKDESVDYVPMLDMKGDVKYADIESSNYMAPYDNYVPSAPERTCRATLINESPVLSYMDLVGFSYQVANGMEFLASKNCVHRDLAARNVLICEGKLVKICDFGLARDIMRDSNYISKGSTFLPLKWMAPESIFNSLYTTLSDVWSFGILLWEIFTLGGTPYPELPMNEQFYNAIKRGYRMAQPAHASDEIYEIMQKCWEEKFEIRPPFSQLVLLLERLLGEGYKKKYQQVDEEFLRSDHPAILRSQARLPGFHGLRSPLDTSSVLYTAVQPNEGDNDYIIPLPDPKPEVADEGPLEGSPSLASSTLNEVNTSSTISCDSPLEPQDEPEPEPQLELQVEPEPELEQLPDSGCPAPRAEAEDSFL

Experiments:
Assay in all cases: kinase-Nluc reporter destabilization hit call (1 = scored as downregulated) (binary); higher = compound decreases kinase abundance
Settings in all cases: K562; 2-18 h
IRAK3 = IRAK3 (UniProt Q9Y616)
JAK1 = JAK1 (UniProt P23458)
LCK = LCK (UniProt P06239)
LIMK1 = LIMK1 (UniProt P53667)
LIMK2 = LIMK2 (UniProt P53671)
LMTK2 = LMTK2 (UniProt Q8IWU2)
LYN = LYN (UniProt P07948)
MAP2K1 = MAP2K1 (UniProt Q02750)
MAP2K2 = MAP2K2 (UniProt P36507)
MAP4K2 = MAP4K2 (UniProt Q12851)
MAPK1 = MAPK1 (UniProt P28482)
MAPK4 = MAPK4 (UniProt P31152)
MAPKAPK2 = MAPKAPK2 (UniProt P49137)
MKNK1 = MKNK1 (UniProt Q9BUB5)
NTRK2 = NTRK2 (UniProt Q16620)
NTRK3 = NTRK3 (UniProt Q16288)
PAK4 = PAK4 (UniProt O96013)
PBK = PBK (UniProt Q96KB5)
PDGFRB = PDGFRB (UniProt P09619)
PDK1 = PDK1 (UniProt Q15118)

Measured: kinase-Nluc reporter destabilization hit call

Cc1ccc2cc(-c3c(C)ccc(C(=O)c4c(-c5ccccc5)n(C)n(-c5ccccc5)c4=O)c3N)ccc2n1 (2.5 µM)
inactive: IRAK3 = 0 | JAK1 = 0 | LCK 0 | LIMK1 = 0 | LIMK2 = 0 | LMTK2 = 0 | LYN 0 | MAP2K1 = 0 | MAP2K2 = 0 | MAP4K2 = 0 | MAPK1 = 0 | MAPK4 = 0 | MAPKAPK2 = 0 | MKNK1 = 0 | NTRK2 = 0 | NTRK3 = 0 | PAK4 = 0 | PBK 0 | PDGFRB 0 | PDK1 = 0

CC#CC(=O)Nc1ccc2ncnc(Nc3cccc(Br)c3)c2c1 (10 µM)
inactive: IRAK3 = 0 | JAK1 = 0 | LCK 0 | LIMK1 = 0 | LIMK2 = 0 | LMTK2 = 0 | LYN 0 | MAP2K1 = 0 | MAP2K2 = 0 | MAP4K2 = 0 | MAPK1 = 0 | MAPK4 = 0 | MAPKAPK2 = 0 | MKNK1 = 0 | NTRK2 = 0 | NTRK3 = 0 | PAK4 = 0 | PBK 0 | PDGFRB 0 | PDK1 = 0

COCCNc1nc2ccc(C#CC3(O)CCCCC3)cc2n1-c1ccnc(N)n1 (10 µM)
inactive: IRAK3 = 0 | JAK1 = 0 | LCK 0 | LIMK1 = 0 | LIMK2 = 0 | LMTK2 = 0 | LYN 0 | MAP2K1 = 0 | MAP2K2 = 0 | MAP4K2 = 0 | MAPK1 = 0 | MAPK4 = 0 | MAPKAPK2 = 0 | MKNK1 = 0 | NTRK2 = 0 | NTRK3 = 0 | PAK4 = 0 | PBK 0 | PDGFRB 0 | PDK1 = 0

NC(=O)c1nc(Nc2ccccc2)sc1NC(=O)C1CCCCC1 (10 µM)
inactive: IRAK3 = 0 | JAK1 = 0 | LCK 0 | LIMK1 = 0 | LIMK2 = 0 | LMTK2 = 0 | LYN 0 | MAP2K1 = 0 | MAP2K2 = 0 | MAP4K2 = 0 | MAPK1 = 0 | MAPK4 = 0 | MAPKAPK2 = 0 | MKNK1 = 0 | NTRK2 = 0 | NTRK3 = 0 | PAK4 = 0 | PBK 0 | PDGFRB 0 | PDK1 = 0

O=S(=O)(NCCCN1c2ccccc2CCc2ccc(Cl)cc21)c1ccc(OC(F)(F)F)cc1 (2.5 µM)
inactive: IRAK3 = 0 | JAK1 = 0 | LCK 0 | LIMK1 = 0 | LIMK2 = 0 | LMTK2 = 0 | LYN 0 | MAP2K1 = 0 | MAP2K2 = 0 | MAP4K2 = 0 | MAPK1 = 0 | MAPK4 = 0 | MAPKAPK2 = 0 | MKNK1 = 0 | NTRK2 = 0 | NTRK3 = 0 | PAK4 = 0 | PBK 0 | PDGFRB 0 | PDK1 = 0

CCN1CCN(Cc2ccc(Nc3ncc(F)c(-c4cc(F)c5nc(C)n(C(C)C)c5c4)n3)nc2)CC1 [Abemaciclib] (2 µM)
inactive: IRAK3 = 0 | JAK1 = 0 | LCK 0 | LIMK1 = 0 | LIMK2 = 0 | LMTK2 = 0 | LYN 0 | MAP2K1 = 0 | MAP2K2 = 0 | MAP4K2 = 0 | MAPK1 = 0 | MAPK4 = 0 | MAPKAPK2 = 0 | MKNK1 = 0 | NTRK2 = 0 | NTRK3 = 0 | PAK4 = 0 | PBK 0 | PDGFRB 0 | PDK1 = 0

Cc1cccc(Oc2cnc(=O)[nH]c2)c1 [Tolimidone] (10 µM)
inactive: IRAK3 = 0 | JAK1 = 0 | LCK 0 | LIMK1 = 0 | LIMK2 = 0 | LMTK2 = 0 | LYN 0 | MAP2K1 = 0 | MAP2K2 = 0 | MAP4K2 = 0 | MAPK1 = 0 | MAPK4 = 0 | MAPKAPK2 = 0 | MKNK1 = 0 | NTRK2 = 0 | NTRK3 = 0 | PAK4 = 0 | PBK 0 | PDGFRB 0 | PDK1 = 0

Cc1cc2ncc(-c3ccc(O)c(O)c3)nc2cc1C [Tyrphostin AG1433] (10 µM)
inactive: IRAK3 = 0 | JAK1 = 0 | LCK 0 | LIMK1 = 0 | LIMK2 = 0 | LMTK2 = 0 | LYN 0 | MAP2K1 = 0 | MAP2K2 = 0 | MAP4K2 = 0 | MAPK1 = 0 | MAPK4 = 0 | MAPKAPK2 = 0 | MKNK1 = 0 | NTRK2 = 0 | NTRK3 = 0 | PAK4 = 0 | PBK 0 | PDGFRB 0 | PDK1 = 0

O=Nc1c(-c2c(O)[nH]c3ccc(I)cc23)[nH]c2ccccc12 [5-Iodo-indirubin-3'-monoxime] (10 µM)
inactive: IRAK3 = 0 | JAK1 = 0 | LCK 0 | LIMK1 = 0 | LIMK2 = 0 | LMTK2 = 0 | LYN 0 | MAP2K1 = 0 | MAP2K2 = 0 | MAP4K2 = 0 | MAPK1 = 0 | MAPK4 = 0 | MAPKAPK2 = 0 | MKNK1 = 0 | NTRK2 = 0 | NTRK3 = 0 | PAK4 = 0 | PBK 0 | PDGFRB 0 | PDK1 = 0

S=C(SSC(=S)N1CCOCC1)N1CCOCC1 (10 µM)
inactive: IRAK3 = 0 | JAK1 = 0 | LCK 0 | LIMK1 = 0 | LIMK2 = 0 | LMTK2 = 0 | LYN 0 | MAP2K1 = 0 | MAP2K2 = 0 | MAP4K2 = 0 | MAPK1 = 0 | MAPK4 = 0 | MAPKAPK2 = 0 | MKNK1 = 0 | NTRK2 = 0 | NTRK3 = 0 | PAK4 = 0 | PBK 0 | PDGFRB 0 | PDK1 = 0

Cc1[nH]c(/C=C2\C(=O)Nc3ccccc32)c(C)c1CCC(=O)O [Orantinib] (10 µM)
inactive: IRAK3 = 0 | JAK1 = 0 | LCK 0 | LIMK1 = 0 | LIMK2 = 0 | LMTK2 = 0 | LYN 0 | MAP2K1 = 0 | MAP2K2 = 0 | MAP4K2 = 0 | MAPK1 = 0 | MAPK4 = 0 | MAPKAPK2 = 0 | MKNK1 = 0 | NTRK2 = 0 | NTRK3 = 0 | PAK4 = 0 | PBK 0 | PDGFRB 0 | PDK1 = 0

CCS(=O)(=O)Nc1ccc2[nH]c(O)c(C(=Nc3ccc(CN4CCCCC4)cc3)c3ccccc3)c2c1 [Hesperadin] (2.5 µM)
inactive: IRAK3 = 0 | JAK1 = 0 | LCK 0 | LIMK1 = 0 | LIMK2 = 0 | LMTK2 = 0 | LYN 0 | MAP2K1 = 0 | MAP2K2 = 0 | MAP4K2 = 0 | MAPK1 = 0 | MAPK4 = 0 | MAPKAPK2 = 0 | MKNK1 = 0 | NTRK2 = 0 | NTRK3 = 0 | PAK4 = 0 | PBK 0 | PDGFRB 0 | PDK1 = 0

CNC(=O)c1ccc(C)c(-n2c(C)cc(OCc3ccc(F)cc3F)c(Br)c2=O)c1 (10 µM)
inactive: IRAK3 = 0 | JAK1 = 0 | LCK 0 | LIMK1 = 0 | LIMK2 = 0 | LMTK2 = 0 | LYN 0 | MAP2K1 = 0 | MAP2K2 = 0 | MAP4K2 = 0 | MAPK1 = 0 | MAPK4 = 0 | MAPKAPK2 = 0 | MKNK1 = 0 | NTRK2 = 0 | NTRK3 = 0 | PAK4 = 0 | PBK 0 | PDGFRB 0 | PDK1 = 0

COc1ccc(Cl)c(Nc2nc3ccccc3nc2NS(=O)(=O)c2cccc(NC(=O)C(C)(C)N)c2)c1 [Pilaralisib] (10 µM)
inactive: IRAK3 = 0 | JAK1 = 0 | LCK 0 | LIMK1 = 0 | LIMK2 = 0 | LMTK2 = 0 | LYN 0 | MAP2K1 = 0 | MAP2K2 = 0 | MAP4K2 = 0 | MAPK1 = 0 | MAPK4 = 0 | MAPKAPK2 = 0 | MKNK1 = 0 | NTRK2 = 0 | NTRK3 = 0 | PAK4 = 0 | PBK 0 | PDGFRB 0 | PDK1 = 0

COc1cc2c(cc1OC)CN(S(=O)(=O)c1ccc(OC)c(N3CCN(C(=O)c4ccc(F)cc4C(F)(F)F)CC3)c1)CC2 (10 µM)
inactive: IRAK3 = 0 | JAK1 = 0 | LCK 0 | LIMK1 = 0 | LIMK2 = 0 | LMTK2 = 0 | LYN 0 | MAP2K1 = 0 | MAP2K2 = 0 | MAP4K2 = 0 | MAPK1 = 0 | MAPK4 = 0 | MAPKAPK2 = 0 | MKNK1 = 0 | NTRK2 = 0 | NTRK3 = 0 | PAK4 = 0 | PBK 0 | PDGFRB 0 | PDK1 = 0

Nothing new here: 2 of the compounds above.
Cc1[nH]c(/C=C2\C(=O)Nc3ccccc32)c(C)c1CCC(=O)O [Orantinib] (10 µM)
inactive: IRAK3 = 0 | JAK1 = 0 | LCK 0 | LIMK1 = 0 | LIMK2 = 0 | LMTK2 = 0 | LYN 0 | MAP2K1 = 0 | MAP2K2 = 0 | MAP4K2 = 0 | MAPK1 = 0 | MAPK4 = 0 | MAPKAPK2 = 0 | MKNK1 = 0 | NTRK2 = 0 | NTRK3 = 0 | PAK4 = 0 | PBK 0 | PDGFRB 0 | PDK1 = 0

CCS(=O)(=O)Nc1ccc2[nH]c(O)c(C(=Nc3ccc(CN4CCCCC4)cc3)c3ccccc3)c2c1 [Hesperadin] (2.5 µM)
inactive: IRAK3 = 0 | JAK1 = 0 | LCK 0 | LIMK1 = 0 | LIMK2 = 0 | LMTK2 = 0 | LYN 0 | MAP2K1 = 0 | MAP2K2 = 0 | MAP4K2 = 0 | MAPK1 = 0 | MAPK4 = 0 | MAPKAPK2 = 0 | MKNK1 = 0 | NTRK2 = 0 | NTRK3 = 0 | PAK4 = 0 | PBK 0 | PDGFRB 0 | PDK1 = 0

Remaining list, next part.

C=CC(=O)Nc1cccc(Nc2nc(Nc3ccc(NC4CN(CCF)C4)cc3OC)ncc2C(F)(F)F)c1 (2.5 µM)
inactive: IRAK3 = 0 | JAK1 = 0 | LCK 0 | LIMK1 = 0 | LIMK2 = 0 | LMTK2 = 0 | LYN 0 | MAP2K1 = 0 | MAP2K2 = 0 | MAP4K2 = 0 | MAPK1 = 0 | MAPK4 = 0 | MAPKAPK2 = 0 | MKNK1 = 0 | NTRK2 = 0 | NTRK3 = 0 | PAK4 = 0 | PBK 0 | PDGFRB 0 | PDK1 = 0

COc1cc2ncnc(Nc3ccc(Cl)cc3F)c2cc1OC (10 µM)
inactive: IRAK3 = 0 | JAK1 = 0 | LCK 0 | LIMK1 = 0 | LIMK2 = 0 | LMTK2 = 0 | LYN 0 | MAP2K1 = 0 | MAP2K2 = 0 | MAP4K2 = 0 | MAPK1 = 0 | MAPK4 = 0 | MAPKAPK2 = 0 | MKNK1 = 0 | NTRK2 = 0 | NTRK3 = 0 | PAK4 = 0 | PBK 0 | PDGFRB 0 | PDK1 = 0

CCN1CCC(n2cc(CNc3cc(Cl)c4ncc(C#N)c(Nc5ccc(F)c(Cl)c5)c4c3)nn2)CC1 [Cot inhibitor-2] (2.5 µM)
inactive: IRAK3 = 0 | JAK1 = 0 | LCK 0 | LIMK1 = 0 | LIMK2 = 0 | LMTK2 = 0 | LYN 0 | MAP2K1 = 0 | MAP2K2 = 0 | MAP4K2 = 0 | MAPK1 = 0 | MAPK4 = 0 | MAPKAPK2 = 0 | MKNK1 = 0 | NTRK2 = 0 | NTRK3 = 0 | PAK4 = 0 | PBK 0 | PDGFRB 0 | PDK1 = 0
